For 1 substance, binding results are on record in patent publication US20080318857A1.

By UniProt entry, the sequences of proteins in these tests, tags left out. Where a name states a change or a piece, a line headed by the entry shows the natural chain unless it says otherwise. Residues count along the entry.
UniProt P35968, residues 20-1356: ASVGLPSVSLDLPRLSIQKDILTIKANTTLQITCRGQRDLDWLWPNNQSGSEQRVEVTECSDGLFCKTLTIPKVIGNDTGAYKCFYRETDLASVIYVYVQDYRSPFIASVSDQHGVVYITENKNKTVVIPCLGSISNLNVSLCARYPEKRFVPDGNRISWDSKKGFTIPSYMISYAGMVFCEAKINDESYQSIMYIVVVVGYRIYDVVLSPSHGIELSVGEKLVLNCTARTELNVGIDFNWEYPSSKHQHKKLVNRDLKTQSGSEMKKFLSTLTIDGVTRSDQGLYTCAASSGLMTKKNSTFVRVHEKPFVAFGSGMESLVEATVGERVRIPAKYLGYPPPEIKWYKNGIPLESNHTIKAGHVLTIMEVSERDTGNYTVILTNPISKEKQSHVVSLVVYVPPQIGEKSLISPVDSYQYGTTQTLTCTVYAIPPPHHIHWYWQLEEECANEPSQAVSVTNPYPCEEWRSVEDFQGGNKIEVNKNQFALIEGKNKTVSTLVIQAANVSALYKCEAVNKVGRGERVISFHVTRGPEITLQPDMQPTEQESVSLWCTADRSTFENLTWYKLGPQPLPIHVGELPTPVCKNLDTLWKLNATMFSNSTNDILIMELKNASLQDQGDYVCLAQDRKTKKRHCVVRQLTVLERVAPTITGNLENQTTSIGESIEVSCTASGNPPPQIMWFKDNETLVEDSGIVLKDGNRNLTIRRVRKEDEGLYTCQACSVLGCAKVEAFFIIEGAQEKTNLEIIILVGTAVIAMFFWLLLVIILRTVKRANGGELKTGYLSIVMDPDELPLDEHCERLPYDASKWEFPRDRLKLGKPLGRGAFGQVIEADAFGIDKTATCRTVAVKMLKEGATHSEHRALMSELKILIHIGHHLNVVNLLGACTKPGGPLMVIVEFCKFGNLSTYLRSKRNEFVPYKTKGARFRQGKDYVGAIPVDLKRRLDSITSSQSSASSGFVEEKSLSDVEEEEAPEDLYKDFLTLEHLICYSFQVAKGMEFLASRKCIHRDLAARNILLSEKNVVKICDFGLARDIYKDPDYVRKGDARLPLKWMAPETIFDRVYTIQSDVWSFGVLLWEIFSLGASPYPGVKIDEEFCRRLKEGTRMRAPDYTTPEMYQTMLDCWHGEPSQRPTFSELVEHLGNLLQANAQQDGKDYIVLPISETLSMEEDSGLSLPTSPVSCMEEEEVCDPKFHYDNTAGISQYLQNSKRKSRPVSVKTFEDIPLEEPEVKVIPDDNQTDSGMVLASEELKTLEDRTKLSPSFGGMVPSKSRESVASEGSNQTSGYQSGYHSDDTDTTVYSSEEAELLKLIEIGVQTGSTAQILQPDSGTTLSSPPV
UniProt P17948: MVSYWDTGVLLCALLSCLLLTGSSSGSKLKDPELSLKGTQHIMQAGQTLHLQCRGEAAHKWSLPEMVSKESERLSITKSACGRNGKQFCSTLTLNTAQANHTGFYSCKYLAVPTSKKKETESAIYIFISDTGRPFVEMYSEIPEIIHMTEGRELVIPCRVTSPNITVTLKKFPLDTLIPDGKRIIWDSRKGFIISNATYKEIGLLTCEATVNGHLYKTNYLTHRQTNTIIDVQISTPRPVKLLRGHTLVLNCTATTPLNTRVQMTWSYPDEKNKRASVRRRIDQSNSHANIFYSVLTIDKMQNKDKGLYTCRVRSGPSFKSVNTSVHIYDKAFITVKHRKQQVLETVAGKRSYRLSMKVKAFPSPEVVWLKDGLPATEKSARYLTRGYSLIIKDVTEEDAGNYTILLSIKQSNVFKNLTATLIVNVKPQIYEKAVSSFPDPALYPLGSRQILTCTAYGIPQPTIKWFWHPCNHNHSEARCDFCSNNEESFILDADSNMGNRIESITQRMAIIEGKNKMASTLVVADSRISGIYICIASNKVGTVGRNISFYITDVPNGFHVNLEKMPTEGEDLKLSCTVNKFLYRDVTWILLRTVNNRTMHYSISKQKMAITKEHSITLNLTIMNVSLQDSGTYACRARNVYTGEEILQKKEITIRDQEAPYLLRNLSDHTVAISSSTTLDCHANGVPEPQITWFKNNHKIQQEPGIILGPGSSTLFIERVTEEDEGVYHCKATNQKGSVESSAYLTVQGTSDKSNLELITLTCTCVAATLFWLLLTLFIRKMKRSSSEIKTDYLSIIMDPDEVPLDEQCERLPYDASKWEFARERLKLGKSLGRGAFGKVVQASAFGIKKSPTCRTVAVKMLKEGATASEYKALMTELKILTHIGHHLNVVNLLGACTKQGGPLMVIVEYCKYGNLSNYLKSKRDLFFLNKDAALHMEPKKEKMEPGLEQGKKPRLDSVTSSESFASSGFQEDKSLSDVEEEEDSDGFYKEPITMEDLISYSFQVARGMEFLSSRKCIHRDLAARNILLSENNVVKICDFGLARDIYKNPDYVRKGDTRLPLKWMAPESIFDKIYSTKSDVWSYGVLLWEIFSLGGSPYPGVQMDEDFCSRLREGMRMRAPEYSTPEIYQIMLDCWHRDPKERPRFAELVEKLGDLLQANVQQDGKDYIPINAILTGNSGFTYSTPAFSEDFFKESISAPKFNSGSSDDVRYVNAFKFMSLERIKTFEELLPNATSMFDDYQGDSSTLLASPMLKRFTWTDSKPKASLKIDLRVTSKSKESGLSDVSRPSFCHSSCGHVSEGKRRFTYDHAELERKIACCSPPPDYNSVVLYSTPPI

No constants are given. Whether binding was seen depends on the method and setting. Binding seen in cells or lysates may run through a third protein. Some results given as binding are weak or reduced against the parent protein; the word gives no strength.

Experiment [1] has as its target VEGFR-2 (KDR), endogenous in A375 human malignant melanoma cells (human) (UniProt P35968). The experiment is described as follows: heading of Example 5 (co-immunoprecipitation in A375 cells).
Experiment [2] shares this target. The experiment is described as follows: co-immunoprecipitation: anti-FLT IP of transfected hypoxic A375 cell fraction, Western blot with anti-VEGFR-2.

Consider “Flt24K intraceptor (Flt24-KDEL; domains 2, 3 and 4 of VEGFR-1 (Flt) fused at the C-terminus to the ER retention signal KDEL) (from UniProt P17948 130-434) (receptor)”, for which the binding result in experiment [1] and in experiment [2] was “binds” each time.
